# From paper PMC10163288
# This is one part of the list.
# B1: il2ra_site1_1z92_normal_mot_HHH_b1_03515_000000289_0001_1_19_H_._HHH_b1_05136_0001_0000200025_0000001_0 (protein)
# chain: SSSSSQEEKLAKAIVRVLVQAAGLSEEQKRELEELAEKLVEEGVDPLEIIKILDRLAAELGSSSS
# B2: il2ra_site2_3nfp_sap_16_mot_HHH_b2_07186_000000286_0001_42_55_H_._HHH_b2_00168_0001_0000100004_0000001_0_0001 (protein)
# chain: SSSSDYEEKIKELEREAEELEEEGNPEEAYRVIAKAAVIAWENNDTETYMKLAELAFEIAQSSSS
# B3: il2ra_site2_3nfp_sap_20_mot_HHH_b1_07114_000000063_0001_43_53_H_._2fddaf487ee4b636a798e6d487813806_0001_0001_0000400018_0000001_0_0001 (protein)
# chain: SSSSDSERYIEALLRLVKEILEQGNEELARKVLRIAIRMARLAGNEEVLEALERLLEELNSSSSS
# B4: il2ra_site2_2erj_sap_19_mot_HHH_b1_08402_000000025_0001_43_54_H_._HHH_b2_00293_af2_0001_0000900015_0000001_0_0001 (protein)
# chain: SSSSNEELRELYELANALMHLLHNNDEEEFEKVSERVRELAERLNSENVEEMLRLMERKISSSSS
# B5: il2ra_site2_3nfp_normal_mot_HHH_b1_00660_af2_000000090_0001_40_57_H_._HHH_b1_07775_af2_0001_0000100002_0000001_1 (protein)
# chain: SSSSDEELEEEVEKLLEEAKKIEDKFEAFALVLRAREIAERLGDEELKQLVARVALEIYESSSSS
# B6: il2ra_site2_3nfp_normal_mot_HHH_b2_06150_000000217_0001_39_53_H_._HHH_b1_05337_0001_0000100005_0000001_0 (protein)
# chain: SSSSDEEVRELLEQLRELAEEGDEERFREVARRISQLIYELGDSELFFELAEILYLFERVSSSSS
# B7: il2ra_site1_3nfp_normal_mot_HHH_b1_05070_af2_000000282_0001_43_57_H_._HHH_b1_05642_af2_0001_0000500010_0000001_0_af2pred_0001_af2pred_1_swapped (protein)
# chain: SSSSSLAEEFQRIAEEIRELLRHDNREEAEKLLEELRELAEELNSPVVRIFVKLMEKRVRSSSSS
# B8: il2ra_site1_3nfp_normal_mot_HHH_b2_07414_af2_000000178_0001_43_56_H_._HHH_b1_03130_af2_0001_0000200029_0000001_0_af2pred_0001_af2pred_swapped (protein)
# chain: SSSSSDEAREILLKALRLLFEGNFEEAEELLEEAERIAEEAGDERLLRLIRFELRAVKRKSSSSS
# B9: il2ra_site1_1z92_normal_mot_HHH_b2_05038_af2_000000006_0001_39_52_H_._HHH_b2_01116_af2_0001_0000100007_0000001_0 (protein)
# chain: SSSSSDEKERALELAAEALRAFFNGDREEAEEILEEALKLAREANDPHLERIIEEYLEFVSSSSS
# B10: il2ra_site1_2b5i_normal_mot_f5ff40796168375b462bec8614a1db4a_0001_1_000000138_0001_53_65_H_._HHH_b2_06077_af2_0001_0000100001_0000001_0_af2pred_dldesign_0_af2pr … (protein)
# chain: SSSSDRKELVEELLEEADRLRERGELERARKLLKLALKAARLTKDPELVAEVEARLAALGSSSSS
# B11: il2ra_site1_1z92_normal_mot_HHH_b2_01902_af2_000000252_0001_25_40_H_._HHH_b1_05395_0001_0000300030_0000001_0_af2pred_0001_af2pred (protein)
# chain: SSSSDELEKRARLFVRSLVRMAGLSEEQQEELEELAEELLRRGYDFEEIRRLLDELALKLSSSSS
# B12: il2ra_site2_2erj_sap_13_mot_HHH_b1_06160_000000008_0001_39_56_H_._HHH_b2_04163_0001_0000800021_0000001_0_0001 (protein)
# chain: SSSSSDAREVAELLARVIEVLKEGDEERVEELLEEARRLAEELNNPFLQRYVELVLREINSSSSS
# B13: il2ra_site1_1z92_sap_17_mot_HHH_b1_08214_000000261_0001_20_36_H_._ems_3hM_1640_0001_0000200028_0000001_0_0001 (protein)
# chain: DLEEELERLLKELGVPPEEVEAFLRDLERSAKFFGDPENAAKALIQVLKRWGDPEAAELLEELLK
# B14: il2ra_site2_2erj_sap_25_mot_ca9fcc9ace360711d783d1260e4fbff1_0001_1_af2_000000007_0001_15_32_H_._HHH_b2_01612_0001_0000100002_0000001_0_0001 (protein)
# chain: SSSSSDLQEVYERVAEILAEAAHIKDEEEAREVAEEAVRLAREAGNEAAARYAELLLEELSSSSS
# B15: il2ra_site2_3nfp_normal_mot_HHH_b2_07946_000000046_0001_20_36_H_._de103a6a2759fb2eb67fe2c7ae4a7c2b_0001_0001_0000400018_0000001_0_af2pred_0001_af2pred (protein)
# chain: SRVIEAIRILEELGDPEAAILLFALRAEVLNKGDPKLEELLEEVLRLVEEGDPEQARRLLEEIHS
# B16: il2ra_site1_1z92_sap_22_mot_HHH_b2_00494_000000030_0001_41_54_H_._HHH_b1_05523_af2_0001_0000500020_0000001_0_0001_af2pred_dldesign_0_af2pred (protein)
# chain: SQAEQELRDAVDSEDEEALREFLEILLRDTGDPERARQFLRVLVKRLGLPEEVLERLEALLDELA
# B17: il2ra_site2_3nfp_sap_22_mot_HHH_b1_01379_af2_000000227_0001_41_54_H_._HHH_b1_07836_0001_0000700021_0000001_0_0001_af2pred_0001_af2pred (protein)
# chain: SSSSDEEERQVEELIREAEELLRKGNPEEAERVLEEAILIAAELGNFELFAILHALLERVDSSSS
# B18: il2ra_site1_2b5i_normal_mot_HHH_b1_00824_af2_000000079_0001_41_56_H_._HHH_b1_00886_0001_0000500020_0000001_0_af2pred_dldesign_0_af2pred (protein)
# chain: SSSSLRELLERAEELYHRYMETKDPRLLKELEKLLEEIKKSGDKFAIKVSEQALELAREESSSSS
# B19: il2ra_site2_3nfp_sap_15_mot_HHH_b1_05628_af2_000000064_0001_19_35_H_._71fa3b3ce36e4cc21c7110f2bf27d1ce_0001_af2_0002_0000400023_0000001_0_0001 (protein)
# chain: SSSSDEEERERKIREELEEAERRGDEELFRRLLARLVQLAFEYNNHQLFFELAELLYKNNSSSSS
# B20: il2ra_site2_3nfp_sap_25_mot_HHH_b1_04756_000000059_0001_41_55_H_._698813b5b2907ad46adb08327c7f7b71_0001_0001_0000500041_0000001_0_0001 (protein)
# chain: SSSSSDWREYIEAALELLKRATNEEEFERIFELVRLAIESRNDPELQEELEEIEEEFKKGSSSSS
# B21: il2ra_site1_2b5i_normal_mot_HHH_b1_08745_af2_000000166_0001_39_57_H_._HHH_b1_02223_0001_0000200006_0000001_0_af2pred_0001_af2pred_1 (protein)
# chain: SSSSSSRNEEVFELFEEADRLDKNGDEEEAEKVLEEARELAEELGNRSALRLVEAMLKLSSSSSS
# B22: il2ra_site1_1z92_normal_mot_HHH_b2_07758_000000290_0001_1_17_H_._HHH_b2_04931_0001_0000200015_0000001_1_af2pred_0001_af2pred_1 (protein)
# chain: SSSSDELEKNARYIVRAMVETAGLSEEQEEELRELARELVERGLSWREIFEILDRLAAKLSSSSS
# B23: il2ra_site1_3nfp_sap_14_mot_HHH_b1_05523_000000054_0001_1_19_H_._HHH_b2_06744_af2_0001_0000200032_0000001_0_0001_af2pred_0001_af2pred_swapped (protein)
# chain: DKVAKLLIRLAIEEDSKRNLKKILEQAERKAGDPEEAERLLQELIEELLGDPEEAEKIVEEIKRR
# B24: il2ra_site2_3nfp_normal_mot_HHH_b1_05918_af2_000000127_0001_23_40_H_._HHH_b2_05419_0001_0000400019_0000001_0 (protein)
# chain: SSSSEAEEYLEAALLLAELALEEGDPEQARKSLELAFQLAEDAGDEEVLEEVEELLREVTSSSSS
# Biological target: il2ra, P01589
# Assay: yeast display titration
row,Binder,apparent Kd
1,B1,inactive: no binding seen
2,B2,inactive: no binding seen
3,B3,inactive: no binding seen
4,B4,inactive: no binding seen
5,B5,inactive: no binding seen
6,B6,inactive: no binding seen
7,B7,inactive: no binding seen
8,B8,inactive: no binding seen
9,B9,inactive: no binding seen
10,B10,inactive: no binding seen
11,B11,inactive: no binding seen
12,B12,inactive: no binding seen
13,B13,inactive: no binding seen
14,B14,inactive: no binding seen
15,B15,inactive: no binding seen
16,B16,inactive: no binding seen
17,B17,inactive: no binding seen
18,B18,inactive: no binding seen
19,B19,inactive: no binding seen
20,B20,inactive: no binding seen
21,B21,inactive: no binding seen
22,B22,inactive: no binding seen
23,B23,inactive: no binding seen
24,B24,inactive: no binding seen

# Quoted from the entries so far (4 entries):
row,Binder,apparent Kd
4,B4,inactive: no binding seen
5,B5,inactive: no binding seen
6,B6,inactive: no binding seen
7,B7,inactive: no binding seen
